This note sets out measurements from PubChem BioAssay AID1487 (National Center for Advancing Translational Sciences (NCATS), 2009).

This assay in a line: qHTS Assay for Modulators of Lamin A Splicing. Particulars: HeLa LMNA splicing GFP/RFP minigene ratio, 48 h. A digest of the protocol: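 S3 HeLa cells stably expressing lamin A-EGFP splicing minigene plus DsRed2, 600 cells/well, 48 h compound exposure at 37C. Laser-scanning cytometry; analysed as GFP (500-530 nm)/RFP (575-640 nm) total intensity ratio; 0.5% DMSO vehicle.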
A general note: qHTS replaces the single test concentration by a dilution series.

[1] abbreviates: measured here: GFP splicing reporter channel.
[2] abbreviates: measured here: RFP viability control channel.

Some of the results follow. Further columns of the screen follow, without active or inactive calls. Compounds called inactive in the main read-out are mostly missing here. The note in brackets gives the kind of curve behind each potency; many fits are weak.

In the case of `COC(=O)N/N=C/c1cc(Cl)cc(Cl)c1OCc1ccc(F)cc1`, the AC50 (in general, the concentration giving half of the maximal activity seen) under setting [1] was 5.01 µM [rising, single point].

Regarding `CCOC(=O)c1cnc(SCc2cccc(C)c2)nc1N`, the AC50 under setting [2] is 0.158 µM [rising, full curve, poor fit].

For `C/C(Cn1nnc([N+](=O)[O-])n1)=N\NC(=O)c1ccc(C)cc1`, the half-maximal activity concentration (AC50) under setting [2] was 11.2 µM [rising, partial curve].

For the compound `Cc1ccc(NC(=O)CCn2nc([N+](=O)[O-])cc2C)nc1`, the AC50 under setting [2] was 0.112 µM [falling, full curve, poor fit].

For the compound `CCc1cc2c(=O)n(Cc3ccco3)c(SCC(=O)N3CCCc4ccccc43)nc2s1`, the AC50 is 12.6 µM [rising, partial curve, poor fit] under setting [1] and 17.8 µM [rising, partial curve] under setting [2].

For `CC(C)[C@H]1CC[C@@H](C)C(C(=O)c2ccccc2)C1=O` (some centres not stated), under setting [1], the AC50 was 3.55 µM [rising, partial curve, poor fit].

Turning to `O=C(O)C1CN(CCCP(=O)(O)O)CCN1` (configuration not stated), the AC50 under setting [2] was 0.00501 µM [falling, full curve, poor fit].

Consider `Cc1oc(-c2ccc(Cl)cc2)nc1CN1CCCC(C(=O)NCc2ccco2)C1` (configuration not stated), for which the concentration at half-maximal activity (AC50) was 17.8 µM [rising, partial curve] under setting [1] and 20 µM [rising, partial curve] under setting [2].

As to `COc1cccc(-c2cc3nc(-c4ccccc4)cc(N4CCCC(O)C4)n3n2)c1` (configuration not stated), under setting [1], the AC50 is 0.158 µM [rising, full curve, poor fit].

For the compound `Cc1nc(NCCc2ccccc2)c2oc3ccccc3c2n1`, the AC50 was 10 µM [rising, partial curve] under setting [1] and 11.2 µM [rising, partial curve] under setting [2].

As to `O=C(O)c1ccccc1NCCO`, under setting [1], the AC50 is 0.0891 µM [rising, full curve].

`FC(F)Oc1ccc(NC(=S)NCc2ccccc2)cc1Cl`: the AC50 under setting [2] was 35.5 µM [rising, single point].

Consider `CCCCc1nc(NCCO)c(C#N)c2c1CCCC2`, for which the AC50 is 0.0398 µM [rising, full curve, poor fit] under setting [1] and 0.0447 µM [rising, full curve] under setting [2].

With `O=C(CNC(=O)C(c1ccccc1)c1ccccc1)N/N=C/c1ccc(O)c([N+](=O)[O-])c1`, under setting [2], the AC50 is 14.1 µM [rising, single point].

With `CCOc1cccc(/C=N/NC(=O)c2cc(-c3cccn3C)n[nH]2)c1O`, the AC50 reads like this: under setting [1], 0.631 µM [falling, full curve]; under setting [2], 25.1 µM [falling, partial curve].

Regarding `CCOC(=O)c1cnc(SCC(=O)c2ccccc2)nc1N`, the AC50 under setting [1] is 12.6 µM [rising, partial curve, poor fit].

On to `COc1ccc(/C=N/Nc2nc(-c3ccc(Cl)cc3)cc(C(F)(F)F)n2)cc1OC`, for which, under setting [2], the AC50 was 28.2 µM [rising, single point].

On to `COC(=O)c1ccc(Cn2c(SCC(=O)Nc3ccc(F)cc3)nc3ccccc32)cc1`, for which, under setting [2], the AC50 was 0.0224 µM [falling, full curve, poor fit].

For the compound `CCCCN(CC)Cc1ccc(CNS(=O)(=O)c2cc3c(cc2Cl)NC(=O)CO3)o1`, the AC50 reads like this: under setting [1], 0.0224 µM [rising, full curve]; under setting [2], 0.316 µM [rising, full curve, poor fit].

Take `O=c1cc(N2CCOCC2)oc2c(-c3ccccc3)cccc12`: the AC50 under setting [1] was 0.00355 µM [falling, full curve, poor fit].

With `CC(=O)N(C1CC(C)C(C#N)(C#N)C1(C#N)C#N)N(C)C` (configuration not stated), under setting [2], the AC50 was 14.1 µM [rising, single point].

As for `Fc1ccc(-n2ncc3c(N4CCN(Cc5ccccc5)CC4)ncnc32)cc1`, under setting [1], the AC50 is 8.91 µM [falling, partial curve, poor fit].

With `CC(C)N(Cc1ccccc1)C(=S)NCc1ccccc1`, the AC50 under setting [1] is 0.0282 µM [falling, full curve, poor fit].

As to `COc1ccccc1NS(=O)(=O)c1cc(NC(=O)c2ccc(Cl)nc2)ccc1Cl`, the AC50 under setting [1] is 3.98 µM [rising, full curve, poor fit] and the AC50 under setting [2] is 3.55 µM [rising, full curve].

With `O=C(O)/C=C/C(=O)NNc1ccc([N+](=O)[O-])cc1`, the AC50 under setting [1] was 28.2 µM [rising, single point].

Consider `COc1cccc(CNC(=O)CSc2n[nH]c(-c3ccccc3Cl)n2)c1`, for which the AC50 under setting [1] is 11.2 µM [rising, partial curve, poor fit].

As to `CC1CC(C)(C)NC(=S)N1CCCC(=O)Nc1ccccc1F` (configuration not stated), the AC50 is, setting by setting: under setting [1], 0.708 µM [falling, full curve, poor fit]; under setting [2], 0.00316 µM [falling, full curve, poor fit].

Consider `NC1=NC(=O)S/C1=C\c1ccc(O)cc1`, for which the AC50 under setting [2] was 11.2 µM [rising, partial curve, poor fit].

Turning to `C/C(Cn1nnc([N+](=O)[O-])n1)=N\NC(=O)c1cccc(Cl)c1`, the AC50 under setting [1] was 8.91 µM [rising, partial curve] and the AC50 under setting [2] is 14.1 µM [rising, single point].

Consider `CNC1C(O)C(OC2C(NC(=O)C(O)CN)CC(N)C(OC3OC(CN)C(O)C(O)C3O)C2O)OCC1(C)O` (configuration not stated), for which the AC50 under setting [1] is 0.562 µM [rising, full curve].

As to `CCn1c(SCC(=O)Nc2nc(-c3ccc(C)cc3)cs2)nnc1-c1ccccc1O`, the AC50 under setting [2] was 5.62 µM [rising, single point].

On to `Cc1nnnn1/C(=C\c1ccccc1)C(=O)OCC(=O)N1CC2(C)CC1CC(C)(C)C2` (configuration not stated), for which the AC50 reads like this: under setting [1], 35.5 µM [falling, single point]; under setting [2], 15.8 µM [falling, single point].

For the compound `O=C(/C=C/c1ccc2c(c1)OCO2)NCCSCc1ccc(Cl)cc1Cl`, the AC50 under setting [1] is 15.8 µM [rising, single point] and the AC50 under setting [2] is 35.5 µM [rising, single point].

In the case of `O=C(N/N=C/c1cc(Br)cc(Br)c1O)c1cccc(N2CCCC2=O)c1`, the AC50 under setting [2] is 0.891 µM [rising, partial curve].

As for `CCOC(=O)c1ccc(NC(=S)N2CCSC2c2ccc(Cl)cc2)cc1` (configuration not stated), the AC50 under setting [1] is 35.5 µM [falling, single point].

`CCC(NC(=O)Nc1cccc(C)c1)c1c(-n2cccc2)sc2c1CCN(C)C2` (configuration not stated): under setting [2], the AC50 is 39.8 µM [falling, partial curve].
